Laboratory results published in patent US20080032897A1, “Methods of screening for inhibitors of autoinhibited proteins” (priority 2004, published 2008).

Test system: mutationally activated Pak2
Conditions: FIG. 10, high luminescence = inhibition

## CN[C@@H]1C[C@H]2O[C@@](C)([C@@H]1OC)n1c3ccccc3c3c4c(c5c6ccccc6n2c5c31)C(=O)NC4 [staurosporine]
  inhibition of mutationally activated Pak2: also inhibits mutationally activated Pak2
